Record: PubChem BioAssay AID1224828 (NIAID, 2016)

- Screen: 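Find genes required for NF-kappaB p65 moving into the nucleus after LPS in mouse macrophages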 (primary screen)
- Cell system: mouse RAW264.7 G9 macrophage reporter cells (GFP-p65, Tnf promoter-mCherry)
- Reagents: siRNA pool against mouse genes, 100 nM
- Time to read-out: 2 days siRNA transfection, then 40 min LPS before fixation
- Conditions: LPS (Salmonella minnesota R595) at 10 ng/ml
- Read-out: 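Imaged p65 nuclear translocation ratio, normalised to the plate median, converted to robust z-scores and averaged across two replicates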
- Direction: p65 translocation robust z-score: higher = more nuclear NF-kappaB p65 after LPS than the plate median; nuclear/cytoplasmic p65 ratio: higher = more nuclear NF-kappaB p65
- Rule for the call: 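Called active when z exceeds 3.3 or falls under -1.56 (median of Tlr4 controls), giving activity score of at least 50; no calls for control wells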
- Meaning of the calls: active = hit (p65 shift raised or lowered); inactive = no clear change
This is one part, drawn at random, of about 17,000 reagents tested. In the full data, 762 (4.5%) were called active. 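Active calls include both raised and lowered p65 entry, mostly lowered; wells with fewer than 50 cells lack a z-score.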 Raw values vary from plate to plate and are shown uncorrected. Reagents against one gene are numbered here.

| Target gene | pool no. | p65 translocation robust z-score | nuclear/cytoplasmic p65 ratio, rep 1 | nuclear/cytoplasmic p65 ratio, rep 2 | low cell count flag | call |
| --- | --- | --- | --- | --- | --- | --- |
| Or5v1 | 1 | 0.09 | 1.68 | 1.58 | enough cells to score | inactive |
| Rnaseh1 | 1 | – | 1.16 | 1.07 | fewer than 50 cells per well; well left out of scoring | inactive |
| Gm16938 | 1 | – | 1.99 | – | fewer than 50 cells per well; well left out of scoring | inactive |
| Pelo | 1 | – | 1.11 | 1.04 | fewer than 50 cells per well; well left out of scoring | inactive |
| Cspp1 | 1 | – | 1.4 | 1.26 | fewer than 50 cells per well; well left out of scoring | inactive |
| Ccnb1 | 1 | 0.25 | 1.48 | 1.43 | enough cells to score | inactive |
| Fmo2 | 1 | 1.43 | 1.72 | 1.73 | enough cells to score | inactive |
| Pthlh | 1 | -1.05 | 1.33 | 1.29 | enough cells to score | inactive |
| Ndn | 1 | 0.33 | 1.49 | 1.38 | enough cells to score | inactive |
| Acsm1 | 1 | -0.3 | 1.43 | 1.44 | enough cells to score | inactive |
| Vmn1r15 | 1 | 0.74 | 1.34 | 1.31 | enough cells to score | inactive |
| Pcdh11x | 1 | 0.32 | 1.56 | 1.39 | enough cells to score | inactive |
| Mgat3 | 1 | 0.19 | 1.79 | 1.54 | enough cells to score | inactive |
| Prokr2 | 1 | -0.46 | 1.38 | 1.58 | enough cells to score | inactive |
| Igfbp5 | 1 | -1.83 | 1.36 | 1.13 | enough cells to score | active |
| Fgf2 | 1 | -0.36 | 1.42 | 1.29 | enough cells to score | inactive |
| Ubl3 | 1 | -0.77 | 1.39 | 1.41 | enough cells to score | inactive |
| Or5a3 | 1 | 1.93 | 1.91 | 1.66 | enough cells to score | inactive |
| Aldh3b1 | 1 | -0.66 | 1.51 | 1.53 | enough cells to score | inactive |
| Fbxo31 | 1 | 0.58 | 1.63 | 1.43 | enough cells to score | inactive |
| Srl | 1 | 0.74 | 1.39 | 1.65 | enough cells to score | inactive |
| Dnah1 | 1 | -1.25 | 1.32 | 1.43 | enough cells to score | inactive |
| Dnah1 | 2 | -0.98 | 1.29 | 1.28 | enough cells to score | inactive |
| Cox7c | 1 | 0.06 | 1.53 | 1.85 | enough cells to score | inactive |
| Or1e32 | 1 | 2.3 | 1.94 | 1.73 | enough cells to score | inactive |

Copied from the listing for reference:
| Target gene | pool no. | p65 translocation robust z-score | nuclear/cytoplasmic p65 ratio, rep 1 | nuclear/cytoplasmic p65 ratio, rep 2 | low cell count flag | call |
| --- | --- | --- | --- | --- | --- | --- |
| Vmn1r15 | 1 | 0.74 | 1.34 | 1.31 | enough cells to score | inactive |
| Pcdh11x | 1 | 0.32 | 1.56 | 1.39 | enough cells to score | inactive |
| Mgat3 | 1 | 0.19 | 1.79 | 1.54 | enough cells to score | inactive |
| Prokr2 | 1 | -0.46 | 1.38 | 1.58 | enough cells to score | inactive |
| Igfbp5 | 1 | -1.83 | 1.36 | 1.13 | enough cells to score | active |
| Fgf2 | 1 | -0.36 | 1.42 | 1.29 | enough cells to score | inactive |
| Ubl3 | 1 | -0.77 | 1.39 | 1.41 | enough cells to score | inactive |
| Or5a3 | 1 | 1.93 | 1.91 | 1.66 | enough cells to score | inactive |
| Aldh3b1 | 1 | -0.66 | 1.51 | 1.53 | enough cells to score | inactive |

Further results follow:
| Target gene | pool no. | p65 translocation robust z-score | nuclear/cytoplasmic p65 ratio, rep 1 | nuclear/cytoplasmic p65 ratio, rep 2 | low cell count flag | call |
| --- | --- | --- | --- | --- | --- | --- |
| Lpcat2 | 1 | – | 1.11 | 1.24 | fewer than 50 cells per well; well left out of scoring | inactive |
| Bbs2 | 1 | 0.1 | 1.6 | 1.66 | enough cells to score | inactive |
| Sh2d3c | 1 | -0.73 | 1.4 | 1.49 | enough cells to score | inactive |
| Plxdc2 | 1 | 0.9 | 1.32 | 1.32 | enough cells to score | inactive |
| Dhx16 | 1 | 0.24 | 1.57 | 1.36 | enough cells to score | inactive |
| Pou4f2 | 1 | -0.99 | 1.18 | 1.28 | enough cells to score | inactive |
| Or4n4 | 1 | -0.61 | 1.42 | 1.65 | enough cells to score | inactive |
| Icam1 | 1 | -0.63 | 1.3 | 1.34 | enough cells to score | inactive |
| Cdx2 | 1 | -0.36 | 1.47 | 1.33 | enough cells to score | inactive |
| Champ1 | 1 | -0.04 | 1.58 | 1.52 | enough cells to score | inactive |
| Gfi1 | 1 | -1.07 | 1.3 | 1.26 | enough cells to score | inactive |
| Btd | 1 | 0.29 | 1.69 | 1.63 | enough cells to score | inactive |
| Psmc5 | 1 | – | 1.17 | 1.26 | fewer than 50 cells per well; well left out of scoring | inactive |
| Fabp5 | 1 | -1.29 | 1.29 | 1.2 | enough cells to score | inactive |
| Lat2 | 1 | -0.44 | 1.35 | 1.21 | enough cells to score | inactive |
| Iqcj | 1 | -0.96 | 1.39 | 1.45 | enough cells to score | inactive |
| Htr2c | 1 | -0.27 | 1.5 | 1.51 | enough cells to score | inactive |
| Tspan32 | 1 | -0.73 | 1.33 | 1.37 | enough cells to score | inactive |
| Bsx | 1 | – | 1.17 | 1.97 | fewer than 50 cells per well; well left out of scoring | inactive |
| Plaa | 1 | 0.1 | 1.52 | 1.41 | enough cells to score | inactive |
| Ctps1 | 1 | -0.15 | 1.45 | 1.37 | enough cells to score | inactive |
| Npm2 | 1 | -1.62 | 1.46 | 1.27 | enough cells to score | active |
| Pofut3 | 1 | 0.11 | 1.65 | 1.44 | enough cells to score | inactive |
| Erich3 | 1 | – | 1.38 | 1.38 | fewer than 50 cells per well; well left out of scoring | inactive |
| Rabepk | 1 | -0.55 | 1.51 | 1.55 | enough cells to score | inactive |
| Pbxip1 | 1 | -0.69 | 1.34 | 1.34 | enough cells to score | inactive |
| Gdnf | 1 | -0.42 | 1.39 | 1.31 | enough cells to score | inactive |
| Ddx42 | 1 | 0.09 | 1.63 | 1.52 | enough cells to score | inactive |
| Spink2 | 1 | -0.38 | 1.34 | 1.37 | enough cells to score | inactive |
| Snai1 | 1 | 0.72 | 1.58 | 1.73 | enough cells to score | inactive |
| Trpm8 | 1 | 0.52 | 1.6 | 1.56 | enough cells to score | inactive |
| Mgat2 | 1 | -1.27 | 1.49 | 1.39 | enough cells to score | inactive |
| Vamp7 | 1 | -0.51 | 1.35 | 1.09 | enough cells to score | inactive |
| Rrp1 | 1 | 1.77 | 1.98 | 1.79 | enough cells to score | inactive |
